Laboratory results as given in the supplement of paper PMC3334620.
Whole data set: some 33,000 sequences, median “E-score (-0.5 to 0.5)” near -0.0014, cut for the highest 2% near 0.25. The list shows a part of the results.

Each sequence was assayed against T1, Cad1 (UniProt P24813) (assay: PBM E-score (8-mer binding enrichment) (E-score (-0.5 to 0.5)); higher = stronger / more preferred TF binding). Conditions: protein concentration: 100 nM; construct: GST-full length.
T1 sequence: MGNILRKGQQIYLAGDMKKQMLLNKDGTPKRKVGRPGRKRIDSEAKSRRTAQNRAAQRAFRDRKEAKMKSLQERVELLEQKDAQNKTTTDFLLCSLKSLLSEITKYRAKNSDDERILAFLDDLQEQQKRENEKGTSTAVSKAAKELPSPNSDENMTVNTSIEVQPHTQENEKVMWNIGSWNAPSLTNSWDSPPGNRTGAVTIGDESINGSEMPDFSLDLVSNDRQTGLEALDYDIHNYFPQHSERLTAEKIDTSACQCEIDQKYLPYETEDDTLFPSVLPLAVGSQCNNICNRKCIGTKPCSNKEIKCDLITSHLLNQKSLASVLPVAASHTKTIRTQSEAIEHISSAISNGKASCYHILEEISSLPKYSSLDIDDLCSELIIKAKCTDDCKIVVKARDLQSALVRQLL
Experimental: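 Universal 'all 10-mer' protein binding microarrays (Agilent AMADID 015681) probed with GST-tagged S. cerevisiae TFs (full-length or DBD) made by in vitro transcription/translation (PURExpress), about 100-200 nM. Bound TF was detected with fluorescent anti-GST. Each ungapped 8-mer (which stands for itself and its reverse complement) is scored by the PBM enrichment score (E-score), a modified Wilcoxon-Mann-Whitney statistic from -0.5 to +0.5, computed with the Universal PBM Analysis Suite. Scale: above 0.35 generally sequence-specific binding.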

Point of comparison: AGTCGAGG, “PBM E-score” value 0.00339. Against it:
- CTCATACC — higher, 0.13
- GATTGGGA — lower, -0.144
- AGTCGCAT — higher, 0.0112
- ATTATGAA — higher, 0.0884
- GCTCAAAC — higher, 0.108
- GCGAGCAC — lower, -0.0117
- AATCTCAG — higher, 0.0315
- GCTTCACA — lower, -0.0729
- ACTTCTTG — higher, 0.027
- GTGTTCGA — higher, 0.208
- CGTTTTCA — higher, 0.141
- CCGCCCCG — higher, 0.211
- ATAAAATA — higher, 0.161
- AAACGTCC — lower, -0.0409
- GCCGGCGA — lower, -0.0667
- CGGGAAAA — higher, 0.0645
- CCTATAAA — lower, -0.263
- AGAGATAT — lower, -0.0136
- AATTTTCC — higher, 0.26
- GAGTGCAC — lower, -0.104
- AGTGAAGA — lower, -0.245
- AGCGGAAG — higher, 0.0595
- GACAACAA — higher, 0.0956
- AAAGAACA — higher, 0.0562
- CTGTTGTA — higher, 0.102
- TAACTTCA — higher, 0.211
- CAGATTAG — lower, -0.0133
- AACATTTA — higher, 0.034
- AGCCATGA — lower, -0.0849
- GGGAGCCC — lower, -0.319
- CAATTAAC — lower, 0.00192
- CCCGCCGG — lower, -0.00326
- ACGTAGTC — lower, -0.233
- GAGGCAGA — lower, -0.184
- CCGCGCAC — lower, -0.0328
- AATCAAAA — higher, 0.0396
- AAATTAGT — higher, 0.273
- AAAAGCCG — higher, 0.109
- ACGCAGCC — higher, 0.0233
- CCAGTGCC — lower, -0.0306
- GACCGGCC — lower, -0.126
- AGCCGTAT — lower, -0.0202
- ATTTTGCA — higher, 0.0881
- GCGATATA — higher, 0.145
- AAGAAGAA — lower, -0.038
- CAGAGGGA — lower, -0.205
- CGGAACAC — higher, 0.235
- AGTCGTTG — lower, -0.116
- ATACGCGC — higher, 0.215
- ATGTCGCA — higher, 0.187
- AGGTGTTC — higher, 0.0664
- CCTACCGC — lower, -0.0896
- AGCTATTG — lower, -0.0347
- CAGGGGGG — lower, -0.484
- TCTATCCA — lower, 0.00059
- TAGACACA — lower, -0.0984
- AGTTGTCA — higher, 0.126
- ACTTATCA — higher, 0.116
- ATAAGGGG — lower, -0.0559
- GCCTCAAC — lower, -0.0513
- TAATGCCA — higher, 0.113
- ACTTCCTG — lower, -0.00649
- GAATCAAA — higher, 0.0378
- ATACTTAC — higher, 0.0308
- CGATGCAG — lower, -0.11
- AGCCTGGA — lower, -0.147
- AATCCCTA — higher, 0.12
- AGGGCTAG — lower, -0.208
- ACTATCCT — lower, -0.0796
- GAACGAAC — higher, 0.151
- AAAGTCCA — higher, 0.0746
- ATATAGAA — lower, 0.00309
- GTAGACTA — lower, -0.0684
- CTCAACTA — higher, 0.0449
- AGGGTCAG — lower, -0.283
- AGACAGAC — higher, 0.131
- TAATAGAA — higher, 0.182
- ACTTACCA — lower, -0.0399
- CCTTGGGA — lower, -0.00782
- CGGGCTAA — lower, -0.158
- ACCCCGAC — lower, -0.18
- CTAGGAAA — lower, -0.177
- TGCATTAA — higher, 0.156
- TCTTACCA — lower, -0.131
- AGGGACGA — lower, -0.0363
